The assay deals with P388 leukemia ip, CD2F1 mice, survival T/C. The assay can be described thus: NCI In Vivo Anticancer Drug Screen. Data for tumor model P388 Leukemia (intraperitoneal) in CD2F1 (CDF1) mice. Conditions: T/C endpoint: median survival time, higher T/C = longer survival.
Where [1] appears, read: dose: 50.0 mg/kg/injection, schedule: Q01DX009 (ip), vehicle: saline.
[2] abbreviates: dose: 100.0 mg/kg/injection, schedule: Q01DX009 (ip), vehicle: saline.
Where [3] appears, read: dose: 200.0 mg/kg/injection, schedule: Q01DX009 (ip), vehicle: saline.
[4] abbreviates: dose: 200.0 mg/kg/injection, schedule: Q04DX003 (ip), vehicle: saline with Tween-80.
Setting [5] is: dose: 12.5 mg/kg/injection, schedule: Q01DX009 (ip), vehicle: saline.
Where [6] appears, read: dose: 25.0 mg/kg/injection, schedule: Q01DX009 (ip), vehicle: saline.
The mark [7] stands for this setting: dose: 50.0 mg/kg/injection, schedule: Q01DX005 (ip), vehicle: saline.
Where [8] appears, read: dose: 100.0 mg/kg/injection, schedule: Q01DX005 (ip), vehicle: saline.
Setting [9] is: dose: 200.0 mg/kg/injection, schedule: Q01DX005 (ip), vehicle: saline.
[10] abbreviates: dose: 60.0 mg/kg/injection, schedule: Q01DX005 (ip), vehicle: saline with Tween-80.
Setting [11] is: dose: 120.0 mg/kg/injection, schedule: Q01DX005 (ip), vehicle: saline with Tween-80.
[12] abbreviates: dose: 240.0 mg/kg/injection, schedule: Q01DX005 (ip), vehicle: saline with Tween-80.
The mark [13] stands for this setting: dose: 50.0 mg/kg/injection, schedule: Q01DX009 (ip), vehicle: saline with Tween-80.
[14] abbreviates: dose: 100.0 mg/kg/injection, schedule: Q01DX009 (ip), vehicle: saline with Tween-80.
[15] abbreviates: dose: 400.0 mg/kg/injection, schedule: Q01DX009 (ip), vehicle: saline.

Experimental findings from PubChem BioAssay AID330 (DTP/NCI, 2004) are described below.

The list does not hold the whole screen: it gathers some chemical classes. Other doses and runs of a compound may be missing. T/C gives the treated animals as a percentage of the vehicle group. Some entries give survivors of the animals treated and no T/C: the source files T/C as zero there, which appears to mark a toxic dose or a test without result, not a measured value. Some survivor counts are full or nearly so, which does not show that the dose was tolerated: survival well below the control is almost never listed, so the zero probably covers shortened survival too. Survivors were counted at the toxicity check, usually on the fifth day, unless a day is given; later deaths do not show. Schedules are NCI's codes, read here as Q, the interval in days (D) or hours (H), X, the number of doses. Where survival is the endpoint, this PubChem deposit counts one and a half times the control or more as active, and values a quarter to a half above the control carry no call in these data; other NCI protocols may use other cut-offs. Some T/C values carry the count of animals alive at the toxicity check (mostly the fifth day); where neither a count nor a note follows, no animal had died by that day. Some doses were run more than once; the results are listed from low to high. Some T/C values are marked as having no survivor count here; that says nothing about deaths at the dose.

With `O=C(O)CCc1cccc(N(CCCl)CCCl)c1`, the T/C was 91 % of control (dose: 12.5 mg/kg/injection, schedule: Q04DX003 (ip), vehicle: saline with Tween-80); 137 % of control (dose: 25.0 mg/kg/injection, schedule: Q04DX003 (ip), vehicle: saline with Tween-80); 118 % of control under setting [1]; 145 % of control (dose: 50.0 mg/kg/injection, schedule: Q04DX003 (ip), vehicle: saline with Tween-80); 181 % of control [5 of 6 alive] (dose: 66.0 mg/kg/injection, schedule: Q04DX003 (ip), vehicle: saline with Tween-80); 109 % of control under setting [2]. The T/C reads like this: (dose: 100.0 mg/kg/injection, schedule: Q04DX003 (ip), vehicle: saline with Tween-80) 104 [4 of 6 alive] and 131 % of control; (dose: 132.0 mg/kg/injection, schedule: Q04DX003 (ip), vehicle: saline with Tween-80) 200 % of control; under setting [3], 140 % of control; under setting [4], 172 % of control. Besides, the survivor count was 1 of 6 (dose: 150.0 mg/kg/injection, schedule: Q04DX003 (ip), vehicle: saline with Tween-80); 5 of 6 under setting [4]; 3 of 6 (dose: 300.0 mg/kg/injection, schedule: Q04DX003 (ip), vehicle: saline with Tween-80); 3 of 6 (dose: 400.0 mg/kg/injection, schedule: Q04DX003 (ip), vehicle: saline with Tween-80).
With `[N-]=[N+]=NC(N)=O`, the T/C reads like this: (dose: 6.25 mg/kg/injection, schedule: Q01DX009 (ip), vehicle: saline) 114 % of control; under setting [5], 112 % of control. For the same compound, the survivor count was 1 of 6 under setting [6], 0 of 6 under setting [1], 0 of 6 under setting [2] and 0 of 6 under setting [3].
In the case of `NCCCCC(N)CSP(=O)(O)O` (stereo unspecified), the T/C reads like this: (dose: 25.0 mg/kg/injection, schedule: Q01DX005 (ip), vehicle: saline) 102 % of control; under setting [7], 100, 107, 108 % of control; under setting [8], 105, 109, 115 % of control; under setting [9], 108, 115, 126 % of control. For the same compound, the survivor count (dose: 400.0 mg/kg/injection, schedule: Q01DX005 (ip), vehicle: saline) is 0 of 6.
In the case of `[N-]=[N+]=N/C=C/c1ccc([N+](=O)[O-])o1`, the T/C is 99 % of control under setting [5]; 117 % of control under setting [6]; 103 and 107 % of control [4 of 6 alive] under setting [1]; 112 % of control under setting [2]; 110 % of control (dose: 100.0 mg/kg/injection, schedule: Q01DX009 (ip), vehicle: suspension in saline); 99 % of control [5 of 6 alive] under setting [3]. Also, the T/C (dose: 200.0 mg/kg/injection, schedule: Q01DX009 (ip), vehicle: suspension in saline) is 107 % of control [5 of 6 alive]. Further, where the note is “dose: 50.0 mg/kg/injection, schedule: Q01DX009 (ip), vehicle: suspension in saline”, the survivor count is recorded as 2 of 6.
Take `CC(C)(C)CNCCCl`: the T/C under setting [7] was 98 % of control and the T/C under setting [8] was 98 % of control. In addition, the survivor count under setting [9] was 0 of 6.
`CN1C(C)(C)CC(O)(c2ccccc2)CC1(C)C.O=[N+]([O-])c1cc([N+](=O)[O-])c(O)c([N+](=O)[O-])c1`: the T/C was 109 % of control under setting [10] and 115 % of control [5 of 6 alive] under setting [11]. For the same compound, the survivor count under setting [12] is on record as 0 of 6.
With `O=[N+]([O-])c1cc([N+](=O)[O-])c(-c2nc([N+](=O)[O-])c(-c3c([N+](=O)[O-])cc([N+](=O)[O-])cc3[N+](=O)[O-])s2)c([N+](=O)[O-])c1`, the T/C under setting [13] is 115 % of control and the T/C under setting [14] is 100 % of control. The survivor count (dose: 200.0 mg/kg/injection, schedule: Q01DX009 (ip), vehicle: saline with Tween-80) is 3 of 6.
For `O=C1C(O)=C([N+](=O)[O-])C(=O)C(O)=C1[N+](=O)[O-]`, the T/C reads like this: (dose: 6.25 mg/kg/injection, schedule: Q01DX005 (ip), vehicle: suspension in saline) 96 % of control; (dose: 12.5 mg/kg/injection, schedule: Q01DX005 (ip), vehicle: suspension in saline) 97 % of control; (dose: 25.0 mg/kg/injection, schedule: Q01DX005 (ip), vehicle: suspension in saline) 103 % of control; (dose: 50.0 mg/kg/injection, schedule: Q01DX005 (ip), vehicle: suspension in saline) 104 % of control. Besides, the survivor count reads like this: (dose: 100.0 mg/kg/injection, schedule: Q01DX005 (ip), vehicle: suspension in saline) 1 of 5; (dose: 200.0 mg/kg/injection, schedule: Q01DX005 (ip), vehicle: suspension in saline) 0 of 5.
Consider `CN(C)C(=O)Oc1ccc[nH]c1=O`, for which the T/C is, setting by setting: under setting [5], 94, 95, 110 % of control; under setting [6], 100, 106, 108 % of control; under setting [1], 87, 93, 100 % of control; under setting [2], 100, 103, 107 % of control; under setting [3], 103, 107, 110 % of control; under setting [15], 101 and 120 % of control. Moreover, the survivor count under setting [15] is 1 of 6.
With `CC(C)OP(C)(=O)O.[Gd]`, the T/C under setting [13] was 90 % of control [survivor count not shown] and the T/C under setting [14] was 90 % of control [survivor count not shown].
As to `CCOP(=S)(CC)Oc1cnn(C)c(=O)c1SCC` (stereo unspecified), the T/C is 102 % of control (dose: 1.56 mg/kg/injection, schedule: Q01DX005 (ip), vehicle: saline with Tween-80); 100 % of control (dose: 3.13 mg/kg/injection, schedule: Q01DX005 (ip), vehicle: saline with Tween-80); 99 and 100 % of control (dose: 6.25 mg/kg/injection, schedule: Q01DX005 (ip), vehicle: saline with Tween-80). Moreover, the survivor count is 2 of 6 (dose: 12.5 mg/kg/injection, schedule: Q01DX005 (ip), vehicle: saline with Tween-80) and 0 of 6 (dose: 25.0 mg/kg/injection, schedule: Q01DX005 (ip), vehicle: saline with Tween-80).
With `O=P1(c2ccccc2)Nc2ncnc(Cl)c2N1` (stereo unspecified), the T/C was 101 % of control (dose: 50.0 mg/kg/injection, schedule: Q01DX009 (ip), vehicle: Klucel (hydroxypropylcellulose) (HPC)); 100 % of control (dose: 100.0 mg/kg/injection, schedule: Q01DX009 (ip), vehicle: Klucel (hydroxypropylcellulose) (HPC)); 107 % of control (dose: 200.0 mg/kg/injection, schedule: Q01DX009 (ip), vehicle: Klucel (hydroxypropylcellulose) (HPC)).
As for `CS(=O)(=O)OC1CSCC1OS(C)(=O)=O` (stereo unspecified), the T/C under setting [1] was 96 % of control [5 of 6 alive] and the T/C under setting [2] was 87 % of control. Besides, the survivor count under setting [3] was 6 of 6.
`ClC1CCCCC1SCCCC1OCCO1` (stereo unspecified): the T/C by setting is: under setting [10], 120 % of control; under setting [11], 122 % of control; under setting [12], 118 % of control.
